# Reference: PubChem BioAssay AID1487 (National Center for Advancing Translational Sciences (NCATS), 2009)
# About 25 (0.01%) of roughly 200,000 compounds were called active. This list was built around the results that the source calls inconclusive (neither active nor inactive); the mix of calls is not that of the screen. Calls come from the whole dose curve; as a rule, active = well fitted inhibition curve with a large enough effect in the signal ratio, with a control signal flat (not every such curve was filed as active); inconclusive = small, poorly fitted or top-dose-only effect, or effect the other way, or a change in a side signal; inactive = flat fitted curve, though single readings scatter; the % refers to the signal ratio. Where the call is inconclusive, the potency comes from a doubtful curve fit.
# Test: qHTS Assay for Modulators of Lamin A Splicing
# Settings: HeLa LMNA splicing GFP/RFP minigene ratio, 48 h; ratio change, negative = inhibition: at 46.1 µM (top of the series) unless noted
# Outline: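 Read-out is the ratio of GFP to DsRed2 object intensity, acquired by 488 nm laser-scanning cytometry on HeLa lamin A-EGFP minigene reporter cells. Compound incubation 48 hrs at 37 °C in Opti-MEM with 2% FBS; DMSO 0.5% final.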
# % is set by controls: 0 for no effect and ±100 for the full control effect; potency is the fitted concentration of half-maximal effect.
Compound,Potency,"ratio change, negative = inhibition"
Cn1c(CCN2CCCCC2)nc2cc(NS(=O)(=O)c3ccc(Cl)cc3)ccc21,"inconclusive: 11.2 µM [inhibitor, partial curve]",–
CC1CCc2onc(C(=O)N3CCN(c4cccc(C(F)(F)F)c4)CC3)c2C1 (stereo not given),–,inconclusive: -36.4% [at 46 µM]
NC(=O)OCC(COC(N)=O)c1ccccc1,–,inconclusive: -15.1%
Cn1nccc1C(=O)NCc1ccc2c(c1)CCN2C(=O)c1ccccc1,–,inconclusive: -11.9% [at 46 µM]
CN(Cc1ccccc1)Cc1nc2c(c(=O)n(C)c(=O)n2C)n1Cc1ccc(F)cc1,–,inconclusive: 10.4%
Cn1c(-c2ccc(F)cc2)cnc1NCc1ccc(F)cc1,–,inactive
CC1CCCN(CCCNC(=O)CN2C(=O)CSc3ccc(S(=O)(=O)N4CCOCC4)cc32)C1 (stereo not given),–,inconclusive: -6.33% [at 46 µM]
C[C@@H](C(=O)O)c1ccc(C(=O)c2ccccc2)s1,–,inconclusive: -18.4%
O=C(CSCc1ccc(Cl)cc1Cl)Nc1ccccc1C(=O)Nc1ccc(C(=O)O)cc1,"inconclusive: 14.1 µM [inhibitor, partial curve]",–
Cc1ccc(C)c(NC(=S)N/N=C2/CCCCc3ccccc32)c1,"inconclusive: 35.5 µM [falling, single point]",–
Cc1[nH]c2ccccc2c1C(c1ccncc1)N1CCN(c2ccc(F)cc2)CC1 (stereo not given),"inconclusive: 35.5 µM [falling, single point]",–
Cc1ccc(NC(=O)Nc2ccc(F)c(Cl)c2)cc1,"inconclusive: 35.5 µM [falling, single point]",–
CCCc1cc2c(-c3ccccc3)cc(=O)oc2cc1OCc1ccc(C(=O)O)o1,–,inactive
CCN(Cc1ccccc1)C(c1ccc(Cl)cc1)c1nnnn1C(C)(C)C (stereo not given),–,inconclusive: 13.4%
O=C(OCC(=O)N1CCCCCC1)c1ccc([N+](=O)[O-])cc1Cl,–,inconclusive: -10.5% [at 46 µM]
COc1ccc(NC(=O)CCN2CCN(S(=O)(=O)c3ccc(OC)cc3)CC2)cc1,–,inconclusive: 20.7% [at 46 µM]
CCOCCc1nn2c(=O)cc(COC(=O)C(CC)c3ccccc3)nc2s1 (stereo not given),–,inactive
COc1ccc(NC(=O)CCn2cccn2)cc1OC,–,inconclusive: 15.3% [at 46 µM]
CN1CCN(c2ccc(S(=O)(=O)Nc3ccccc3)cc2[N+](=O)[O-])CC1,"inconclusive: 14.1 µM [fluorescent, partial curve]",–
Cc1ccc(N(C)C(=O)C2CCCN(c3ncnc4c3nc3n4CCCCC3)C2)cc1C (stereo not given),"inconclusive: 35.5 µM [inhibitor, partial curve]",–

# Part of the list above, with bars between the fields:
Compound | Potency | ratio change, negative = inhibition
Cn1c(CCN2CCCCC2)nc2cc(NS(=O)(=O)c3ccc(Cl)cc3)ccc21 | inconclusive: 11.2 µM [inhibitor, partial curve] | –
Cn1c(-c2ccc(F)cc2)cnc1NCc1ccc(F)cc1 | – | inactive
